Some of the results follow. Further columns of the screen follow, without active or inactive calls. Most of these compounds were active or inconclusive in the main read-out, so they are no random draw. The note in brackets gives the kind of curve behind each potency; many fits are weak.
Experiment: qHTS Assay to Find Inhibitors of Chronic Active B-Cell Receptor Signaling
Conditions: ABC-DLBCL IkBa-CBG/CBR reporter, luminescence ratio (green luciferase fused to IkBa over red control in TMD8 lymphoma cells), 4 h
Method in brief: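 TMD8 human ABC-DLBCL cells with doxycycline-inducible IκBα–green luciferase fusion and unfused red luciferase, in 0.5% FBS medium; compounds up to 46 uM, 4 h at 37C. Green/red luminescence ratio, filter-overlap corrected, fitted to concentration-response curves.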

[1] = measured here: CBR red luminescence, cell number
[2] = measured here: IkBa-CBG green luminescence

Question: With `COc1cc(-c2nc(-c3ccccc3)c(-c3cc([N+](=O)[O-])ccc3C)[nH]2)cc(OC)c1OC` as the compound, how does the AC50 [1] read?
Answer: 9.2 µM [falling, partial curve, poor fit]

Question: Which AC50 [1] does the source give for `O=C(Nc1ccccc1SCC1CSc2nc3ccccc3c(=O)n21)c1cccc(Cl)c1` (stereo unspecified) here?
Answer: 10.3 µM [falling, partial curve, poor fit]

Question: For `O=C(c1ccc(Br)s1)N1CCN(S(=O)(=O)c2ccccc2)CC1`, which AC50 [1] is on record?
Answer: 6.31 µM [rising, single point]

Question: With `Cc1ccc(-c2nc(-c3ccncc3)no2)c(C)c1` as the compound, how does the AC50 [1] read?
Answer: 3.16 µM [rising, full curve, poor fit]

Question: For `Cc1ccc2nc(C)c3c(c2c1)SCC3`, which AC50 [1] is on record?
Answer: 6.31 µM [rising, partial curve]

Question: Which AC50 [1] does the source give for `CCOC(=O)c1nnc(-c2ccccc2)nc1Oc1ccc(Cl)cc1` here?
Answer: 23.1 µM [falling, single point]

Question: With `COc1ccccc1-c1cc2nc(C)c(CCC(=O)NCc3ccc(F)cc3)c(C)n2n1` as the compound, how does the AC50 [1] read?
Answer: 5.62 µM [falling, partial curve]

Question: For `Cc1ccc(NC(=O)Nc2nc3ccccc3s2)cc1NC(=O)Nc1nc2ccccc2s1`, which AC50 [1] is on record?
Answer: 10 µM [falling, partial curve]

Question: For `COc1ccc(NC(=O)COC(=O)CCCC2=NS(=O)(=O)c3ccccc3N2)cc1Cl`, which AC50 [1] is on record?
Answer: 14.1 µM [rising, partial curve, poor fit]

Question: With `O=C(NC(=S)Nc1ccccc1Br)c1cccnc1` as the compound, how does the AC50 [1] read?
Answer: 2.82 µM [rising, partial curve, poor fit]

Question: With `Cc1c(N2C(=O)C3C4C=CC(C4)C3C2=O)c(=O)n(-c2ccccc2)n1C` (stereo unspecified) as the compound, how does the AC50 [1] read?
Answer: 15.8 µM [rising, single point]

Question: With `CC(=O)c1cccc(Nc2ncnc3c2cnn3C)c1` as the compound, how does the AC50 [1] read?
Answer: 10 µM [falling, partial curve, poor fit]

Question: For `CCOC(=O)Nc1ccc2c(c1)N(C(=O)CCN1CCN3CCCC3C1)c1ccccc1CC2` (stereo unspecified), which AC50 [1] is on record?
Answer: 0.259 µM [falling, full curve, poor fit]

Question: With `Cc1ccc(C)n1-n1cnc2sc(-c3ccccc3)cc2c1=O` as the compound, how does the AC50 [1] read?
Answer: 20.6 µM [falling, single point]

Question: Which AC50 [1] does the source give for `Cc1ccc(C2=NN(C3=NN=C(N)Cc4ncnn43)C(O)(C(F)(F)F)C2)cc1` (stereo unspecified) here?
Answer: 17.8 µM [rising, partial curve, poor fit]

Question: Which AC50 [1] does the source give for `CCc1nnc(NC(=O)CCn2cnc3ccccc3c2=O)s1` here?
Answer: 35.5 µM [falling, single point]

Question: With `CCOC(=O)CC1=C(C(=O)OCC)C(c2cccnc2)C(C#N)=C(N)O1` (stereo unspecified) as the compound, how does the AC50 [1] read?
Answer: 14.6 µM [falling, single point]

Question: Which AC50 [1] does the source give for `C[C@@]12CCC=C[C@H]1[C@H](c1ccc3ccccc3c1Br)N(Cc1ccccc1)C2=O` here?
Answer: 35.5 µM [falling, single point]

Question: For `CCCC(=O)Oc1ccccc1C1SCc2cc(C)c(C)cc2CS1`, which AC50 [1] is on record?
Answer: 6.31 µM [falling, single point]

Question: With `COc1ccc(C[C@H]2c3cc(O)c(OC)cc3CC[N+]2(C)[O-])cc1O` (stereo partly specified) as the compound, how does the AC50 [1] read?
Answer: 3.55 µM [rising, partial curve, poor fit]

Question: With `O=C(c1ccc(S(=O)(=O)N2CCOCC2)cc1)N1CCN(c2ccccn2)CC1` as the compound, how does the AC50 [1] read?
Answer: 22.4 µM [falling, single point]

Question: With `NC(=S)N=Nc1c(O)n(Cc2ccc(Br)cc2)c2ccccc12` as the compound, how does the AC50 [2] read?
Answer: 3.26 µM [falling, full curve]

Question: With `CCSc1nc(=S)n(-c2ccccc2)c(C)c1C(C)=O` as the compound, how does the AC50 [1] read?
Answer: 20.6 µM [falling, single point]

Question: For `Cc1ccsc1C(=O)Nc1nccs1`, which AC50 [1] is on record?
Answer: 5.01 µM [falling, partial curve, poor fit]

Question: For `O=C(NCCC1CCCCN1S(=O)(=O)c1ccc(Cl)cc1)C(=O)NCc1ccncc1` (stereo unspecified), which AC50 [2] is on record?
Answer: 6.51 µM [rising, partial curve, poor fit]

Question: Which AC50 [1] does the source give for `CCOc1ccc(CCNC(=O)Cc2ccc(NC3=NC4CS(=O)(=O)CC4S3)cc2)cc1` (stereo unspecified) here?
Answer: 14.1 µM [rising, single point]

Question: Which AC50 [1] does the source give for `C/C(=N\Nc1ccc(F)cc1F)c1ccc(Br)s1` here?
Answer: 10 µM [rising, partial curve]

Question: For `CCCCCc1c(O)nc(SCCN(CC)CC)[nH]c1=O`, which AC50 [1] is on record?
Answer: 22.4 µM [falling, single point]

Question: For `COc1ccc(C2C=C(C)Nc3nc4ccccc4n32)cc1` (stereo unspecified), which AC50 [1] is on record?
Answer: 35.5 µM [falling, single point]

Question: With `O=C1C=C(c2cccc(Cl)c2O)C[C@@H](c2ccc(F)cc2)C1` as the compound, how does the AC50 [1] read?
Answer: 29.1 µM [falling, single point]

Question: And the AC50 [2]?
Answer: 23.1 µM [rising, partial curve, poor fit]

Question: With `CC(C)CCn1nc(C(=O)OC(C)C(=O)NC(N)=O)c2ccccc2c1=O` (stereo unspecified) as the compound, how does the AC50 [1] read?
Answer: 0.562 µM [rising, full curve, poor fit]

Question: Which AC50 [1] does the source give for `Cc1cc(NC(=O)c2cccs2)ncc1NC(=O)c1cccc(F)c1` here?
Answer: 20 µM [falling, single point]

Question: For `CCOC(=O)c1cnc2c(Cl)c(Cl)ccc2c1NCCN1CCOCC1`, which AC50 [1] is on record?
Answer: 0.0891 µM [rising, full curve, poor fit]

Question: Which AC50 [1] does the source give for `N#CCC(=O)Nc1ccc(C(=O)OCC(=O)N(Cc2ccccc2)C2CCS(=O)(=O)C2)cc1` (stereo unspecified) here?
Answer: 35.5 µM [falling, single point]

Question: For `Cc1ccc(NC(=O)C2CC(=O)NC(N3CCc4ccccc43)=N2)cc1` (stereo unspecified), which AC50 [1] is on record?
Answer: 5.17 µM [rising, single point]

Question: For `CCOC(=O)c1c(C)nc2ccccc2c1C`, which AC50 [2] is on record?
Answer: 16.4 µM [falling, partial curve, poor fit]

Question: With `Cc1cc(Nc2ccccc2)n(-c2ccccc2)n1` as the compound, how does the AC50 [1] read?
Answer: 0.00461 µM [rising, full curve, poor fit]

Question: With `COC(=O)c1cc(OC)c(OC)cc1NC(=O)Nc1cccc(C(C)=O)c1` as the compound, how does the AC50 [1] read?
Answer: 35.5 µM [rising, single point]

Question: Which AC50 [1] does the source give for `CCOC(=O)C1(Cc2ccc(Cl)cc2)CCN(Cc2ccon2)CC1` here?
Answer: 1.58 µM [rising, partial curve, poor fit]

Question: Which AC50 [1] does the source give for `CSc1nc(N2CCOCC2)c2sccc2n1` here?
Answer: 31.6 µM [falling, single point]

Question: Which AC50 [1] does the source give for `C[C@H](NC(=O)c1[nH]cnc1C(=O)N[C@H](C)c1ccccc1)c1ccccc1` here?
Answer: 13 µM [falling, partial curve, poor fit]

Question: With `COc1ccc(NC(=O)c2ccccc2NC(=O)c2ccco2)c(OC)c1` as the compound, how does the AC50 [1] read?
Answer: 3.55 µM [falling, partial curve]

Question: For `COc1cc(OC)cc(C(=O)Nc2ccc(N3CCN(C(=O)c4cccs4)CC3)cc2)c1`, which AC50 [1] is on record?
Answer: 12.6 µM [falling, partial curve, poor fit]

Question: With `CCn1ccc2cc(OC)ccc2c1=S` as the compound, how does the AC50 [1] read?
Answer: 1.58 µM [rising, full curve]

Question: What about the AC50 [2] of the same compound?
Answer: 12.6 µM [falling, partial curve, poor fit]

Question: With `O=C(c1noc2c1CCc1ccccc1-2)N1CCc2ccccc2C1` as the compound, how does the AC50 [1] read?
Answer: 29.1 µM [falling, single point]

Question: With `COc1ccc(NC(=O)CCN2C(=O)NC3(CCCC3)C2=O)cc1Cl` as the compound, how does the AC50 [1] read?
Answer: 25.9 µM [rising, single point]

Question: Which AC50 [1] does the source give for `Cc1ccc2c(n1)sc1c(N)ncnc12` here?
Answer: 3.16 µM [falling, full curve]

Question: Which AC50 [1] does the source give for `CCOc1cc(CNc2ccc3[nH]c(=O)[nH]c3c2)ccc1OCC(=O)NC(C)(C)C` here?
Answer: 29.1 µM [rising, partial curve, poor fit]

Question: For `CCOc1cc2[nH]c(=S)n(CCc3ccc(OC)c(OC)c3)c(=O)c2cc1OCC`, which AC50 [1] is on record?
Answer: 29.1 µM [rising, single point]

Question: For `O=C(COC(=O)c1ccccn1)c1ccc([N+](=O)[O-])cc1`, which AC50 [1] is on record?
Answer: 3.98 µM [falling, partial curve]

Question: For `COc1ccc(C2=Nc3ccccc3OC2)cc1`, which AC50 [1] is on record?
Answer: 11.6 µM [falling, single point]

Question: Which AC50 [1] does the source give for `O=C(Nc1ccccc1C(=O)N1CCCCCC1)c1cccc([N+](=O)[O-])c1` here?
Answer: 11.2 µM [falling, partial curve, poor fit]

Question: For `Cc1nn(-c2ccccc2)c(C)c1-c1ccccc1O`, which AC50 [1] is on record?
Answer: 8.91 µM [rising, partial curve]

Question: What does the source list for `COc1cc(-c2ccc(NC(=O)NC3CC3)c(OC)c2)ccc1NC(=O)NC1CC1`?
Answer: AC50 [1]: 25.1 µM [falling, partial curve, poor fit]; AC50 [2]: 15.8 µM [rising, partial curve, poor fit]

Question: Which AC50 [1] does the source give for `Cc1ccc(S(=O)(=O)N2CCN(C(=O)C3CC(=O)N(c4ccc5c(c4)OCCO5)C3)CC2)cc1` (stereo unspecified) here?
Answer: 0.731 µM [rising, full curve, poor fit]

Question: Which AC50 [1] does the source give for `CC(=O)c1ccccc1OCC(O)CN1CCN(CCN2C(=O)c3cccc4cccc(c34)C2=O)CC1` (stereo unspecified) here?
Answer: 25.1 µM [falling, single point]

Question: Which AC50 [1] does the source give for `Cc1c(CCC(=O)O)c(=O)oc2cc3occ(-c4ccc(F)cc4)c3cc12` here?
Answer: 9.2 µM [rising, partial curve, poor fit]

Question: For `Cc1nnc(SCc2ccc(C(=O)Nc3cc(Cl)ccc3C)cc2)s1`, which AC50 [1] is on record?
Answer: 14.6 µM [falling, partial curve, poor fit]

Question: With `CCOC(=O)N1CCN(C(=O)COc2cccc3c2CCN(Cc2cccc(C)c2)C3=O)CC1` as the compound, how does the AC50 [1] read?
Answer: 18.4 µM [falling, partial curve]

Question: With `COc1ccc2c(=O)c(-c3ccc(OC)c(OC)c3)coc2c1` as the compound, how does the AC50 [1] read?
Answer: 35.5 µM [falling, single point]

Question: For `NC(=O)c1cc(C(=O)Cc2ccccc2)c[nH]1`, which AC50 [1] is on record?
Answer: 0.398 µM [rising, full curve, poor fit]

Question: With `O=C(Cc1ccc(Cl)cc1)Nc1ncccn1` as the compound, how does the AC50 [1] read?
Answer: 3.16 µM [rising, partial curve]

Question: With `CCC1Cc2c(nc(N)c3c(N)nc(N4CCOCC4)c(C#N)c23)O1` (stereo unspecified) as the compound, how does the AC50 [1] read?
Answer: 35.5 µM [falling, partial curve, poor fit]

— PubChem BioAssay AID493014 (National Center for Advancing Translational Sciences (NCATS), 2011)
